# Source: the supplement of paper PMC6411743
# Protein sequences, listed by entry. Tags and fused reporters are not part of them. Lines headed by an entry give the natural chain unless they say otherwise; changes in a name come on top.
# UniProt Q9HBF4: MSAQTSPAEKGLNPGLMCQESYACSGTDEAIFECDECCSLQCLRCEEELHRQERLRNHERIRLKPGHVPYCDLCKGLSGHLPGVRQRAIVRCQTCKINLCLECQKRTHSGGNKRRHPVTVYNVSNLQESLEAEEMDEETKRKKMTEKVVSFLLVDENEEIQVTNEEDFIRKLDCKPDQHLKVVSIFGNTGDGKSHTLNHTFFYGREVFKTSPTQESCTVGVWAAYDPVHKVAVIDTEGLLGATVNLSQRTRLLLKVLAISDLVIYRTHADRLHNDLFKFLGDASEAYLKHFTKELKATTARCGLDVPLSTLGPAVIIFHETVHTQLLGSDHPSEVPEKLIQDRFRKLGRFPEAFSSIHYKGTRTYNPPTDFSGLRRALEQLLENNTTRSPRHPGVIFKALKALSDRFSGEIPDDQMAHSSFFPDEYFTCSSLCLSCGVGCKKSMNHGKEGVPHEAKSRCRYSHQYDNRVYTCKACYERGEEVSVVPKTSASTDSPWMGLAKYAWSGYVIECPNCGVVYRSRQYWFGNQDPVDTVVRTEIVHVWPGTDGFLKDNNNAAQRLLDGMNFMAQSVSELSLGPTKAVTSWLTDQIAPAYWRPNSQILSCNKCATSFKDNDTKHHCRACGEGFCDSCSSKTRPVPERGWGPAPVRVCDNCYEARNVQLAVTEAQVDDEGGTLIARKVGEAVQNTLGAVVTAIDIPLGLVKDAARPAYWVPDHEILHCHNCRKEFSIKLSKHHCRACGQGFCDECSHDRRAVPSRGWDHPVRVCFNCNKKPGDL
# UniProt Q9BTW9: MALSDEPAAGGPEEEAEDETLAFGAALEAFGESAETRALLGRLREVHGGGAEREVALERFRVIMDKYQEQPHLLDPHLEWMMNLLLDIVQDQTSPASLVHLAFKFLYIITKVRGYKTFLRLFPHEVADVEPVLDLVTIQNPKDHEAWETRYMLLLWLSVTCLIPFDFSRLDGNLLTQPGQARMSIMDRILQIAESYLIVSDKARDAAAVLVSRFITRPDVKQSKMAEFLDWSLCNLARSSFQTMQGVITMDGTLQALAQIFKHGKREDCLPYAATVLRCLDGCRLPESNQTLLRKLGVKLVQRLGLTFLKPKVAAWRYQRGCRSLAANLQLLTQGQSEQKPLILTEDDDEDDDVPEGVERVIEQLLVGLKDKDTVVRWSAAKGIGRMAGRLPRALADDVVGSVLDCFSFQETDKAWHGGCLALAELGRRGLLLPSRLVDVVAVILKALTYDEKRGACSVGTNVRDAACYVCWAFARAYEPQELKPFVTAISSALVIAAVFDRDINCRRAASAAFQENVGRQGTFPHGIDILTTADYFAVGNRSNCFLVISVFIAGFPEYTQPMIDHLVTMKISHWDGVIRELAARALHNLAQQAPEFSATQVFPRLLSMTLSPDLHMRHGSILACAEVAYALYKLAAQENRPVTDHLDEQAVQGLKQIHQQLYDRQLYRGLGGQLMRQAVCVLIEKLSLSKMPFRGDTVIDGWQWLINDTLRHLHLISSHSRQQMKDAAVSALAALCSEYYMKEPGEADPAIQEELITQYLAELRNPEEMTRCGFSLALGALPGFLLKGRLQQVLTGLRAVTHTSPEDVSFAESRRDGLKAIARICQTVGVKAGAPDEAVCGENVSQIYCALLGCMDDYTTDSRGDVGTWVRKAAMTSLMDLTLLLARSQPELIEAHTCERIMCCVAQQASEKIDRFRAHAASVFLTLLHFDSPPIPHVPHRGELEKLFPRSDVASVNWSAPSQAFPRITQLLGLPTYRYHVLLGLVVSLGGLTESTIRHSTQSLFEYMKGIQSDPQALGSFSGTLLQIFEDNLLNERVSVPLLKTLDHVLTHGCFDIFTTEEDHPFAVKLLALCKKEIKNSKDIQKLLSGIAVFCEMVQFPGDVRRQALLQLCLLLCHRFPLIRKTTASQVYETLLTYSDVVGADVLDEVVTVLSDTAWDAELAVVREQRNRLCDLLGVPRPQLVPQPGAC
# UniProt Q9NXW2: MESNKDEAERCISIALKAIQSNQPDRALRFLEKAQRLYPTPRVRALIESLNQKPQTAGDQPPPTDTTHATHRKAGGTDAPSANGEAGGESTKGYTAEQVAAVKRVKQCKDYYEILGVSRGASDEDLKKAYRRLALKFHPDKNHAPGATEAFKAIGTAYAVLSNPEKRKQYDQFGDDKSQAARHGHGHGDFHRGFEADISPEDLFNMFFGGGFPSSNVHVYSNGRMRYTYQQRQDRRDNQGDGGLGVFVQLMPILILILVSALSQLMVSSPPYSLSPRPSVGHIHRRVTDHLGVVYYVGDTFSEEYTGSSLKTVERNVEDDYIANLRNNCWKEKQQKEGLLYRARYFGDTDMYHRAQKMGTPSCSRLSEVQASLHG
# UniProt Q9BQE5: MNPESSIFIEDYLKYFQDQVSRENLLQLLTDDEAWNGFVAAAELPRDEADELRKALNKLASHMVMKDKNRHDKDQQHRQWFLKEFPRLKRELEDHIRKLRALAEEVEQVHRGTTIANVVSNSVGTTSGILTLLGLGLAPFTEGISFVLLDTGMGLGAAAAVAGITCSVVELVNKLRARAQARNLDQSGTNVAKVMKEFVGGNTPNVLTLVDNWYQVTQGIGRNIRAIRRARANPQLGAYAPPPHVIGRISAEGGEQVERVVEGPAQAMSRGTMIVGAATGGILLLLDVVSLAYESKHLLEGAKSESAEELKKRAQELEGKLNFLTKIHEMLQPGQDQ
# UniProt Q66K89: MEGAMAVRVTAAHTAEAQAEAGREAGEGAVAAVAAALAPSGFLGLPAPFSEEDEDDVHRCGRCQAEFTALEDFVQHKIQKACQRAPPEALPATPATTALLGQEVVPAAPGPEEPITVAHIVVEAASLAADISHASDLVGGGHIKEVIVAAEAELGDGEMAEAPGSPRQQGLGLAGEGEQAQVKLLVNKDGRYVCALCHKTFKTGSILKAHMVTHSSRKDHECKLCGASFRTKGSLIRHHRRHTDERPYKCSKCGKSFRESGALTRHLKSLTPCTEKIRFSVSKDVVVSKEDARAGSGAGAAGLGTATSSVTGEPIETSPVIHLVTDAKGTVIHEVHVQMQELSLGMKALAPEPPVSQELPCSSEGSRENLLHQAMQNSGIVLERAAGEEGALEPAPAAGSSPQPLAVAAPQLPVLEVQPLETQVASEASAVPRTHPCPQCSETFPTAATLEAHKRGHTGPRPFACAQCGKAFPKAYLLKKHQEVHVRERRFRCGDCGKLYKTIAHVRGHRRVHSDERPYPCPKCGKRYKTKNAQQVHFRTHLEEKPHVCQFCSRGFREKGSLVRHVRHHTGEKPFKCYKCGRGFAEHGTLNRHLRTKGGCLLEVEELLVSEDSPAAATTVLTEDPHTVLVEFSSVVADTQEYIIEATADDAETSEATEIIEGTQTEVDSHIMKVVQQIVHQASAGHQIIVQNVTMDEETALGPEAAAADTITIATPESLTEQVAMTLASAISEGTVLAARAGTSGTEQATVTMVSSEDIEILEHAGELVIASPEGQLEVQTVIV
# UniProt Q96CD2: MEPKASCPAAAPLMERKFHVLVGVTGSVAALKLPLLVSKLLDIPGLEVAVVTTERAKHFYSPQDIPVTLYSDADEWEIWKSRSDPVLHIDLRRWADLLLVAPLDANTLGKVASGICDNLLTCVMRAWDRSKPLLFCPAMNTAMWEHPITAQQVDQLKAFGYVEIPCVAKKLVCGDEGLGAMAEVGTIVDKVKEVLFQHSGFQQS
# UniProt Q96GD4, whole entry: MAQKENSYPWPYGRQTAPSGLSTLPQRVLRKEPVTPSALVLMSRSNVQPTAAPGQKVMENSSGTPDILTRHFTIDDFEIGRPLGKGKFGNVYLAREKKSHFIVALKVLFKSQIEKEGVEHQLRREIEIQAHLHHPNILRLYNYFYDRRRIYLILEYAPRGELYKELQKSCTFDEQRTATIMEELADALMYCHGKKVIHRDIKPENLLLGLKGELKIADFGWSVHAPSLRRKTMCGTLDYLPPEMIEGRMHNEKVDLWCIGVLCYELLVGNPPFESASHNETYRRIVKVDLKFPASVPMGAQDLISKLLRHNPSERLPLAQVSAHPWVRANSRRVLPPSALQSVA
# UniProt Q8NDF8: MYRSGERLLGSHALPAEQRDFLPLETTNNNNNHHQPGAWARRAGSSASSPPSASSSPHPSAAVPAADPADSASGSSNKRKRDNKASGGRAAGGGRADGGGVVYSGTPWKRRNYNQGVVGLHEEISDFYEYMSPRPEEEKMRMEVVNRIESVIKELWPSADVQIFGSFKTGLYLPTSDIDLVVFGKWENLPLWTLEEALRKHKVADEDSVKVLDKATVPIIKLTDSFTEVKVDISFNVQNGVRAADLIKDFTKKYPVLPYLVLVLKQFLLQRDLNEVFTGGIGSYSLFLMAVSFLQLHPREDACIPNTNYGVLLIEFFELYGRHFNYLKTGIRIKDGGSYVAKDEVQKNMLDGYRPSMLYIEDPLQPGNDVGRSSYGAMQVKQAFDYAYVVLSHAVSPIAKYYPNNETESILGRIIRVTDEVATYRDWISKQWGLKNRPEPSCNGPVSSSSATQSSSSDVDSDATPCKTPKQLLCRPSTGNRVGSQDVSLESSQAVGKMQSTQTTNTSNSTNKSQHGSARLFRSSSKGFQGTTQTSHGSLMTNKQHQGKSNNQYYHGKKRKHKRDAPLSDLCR
# UniProt Q9H0E9, whole entry: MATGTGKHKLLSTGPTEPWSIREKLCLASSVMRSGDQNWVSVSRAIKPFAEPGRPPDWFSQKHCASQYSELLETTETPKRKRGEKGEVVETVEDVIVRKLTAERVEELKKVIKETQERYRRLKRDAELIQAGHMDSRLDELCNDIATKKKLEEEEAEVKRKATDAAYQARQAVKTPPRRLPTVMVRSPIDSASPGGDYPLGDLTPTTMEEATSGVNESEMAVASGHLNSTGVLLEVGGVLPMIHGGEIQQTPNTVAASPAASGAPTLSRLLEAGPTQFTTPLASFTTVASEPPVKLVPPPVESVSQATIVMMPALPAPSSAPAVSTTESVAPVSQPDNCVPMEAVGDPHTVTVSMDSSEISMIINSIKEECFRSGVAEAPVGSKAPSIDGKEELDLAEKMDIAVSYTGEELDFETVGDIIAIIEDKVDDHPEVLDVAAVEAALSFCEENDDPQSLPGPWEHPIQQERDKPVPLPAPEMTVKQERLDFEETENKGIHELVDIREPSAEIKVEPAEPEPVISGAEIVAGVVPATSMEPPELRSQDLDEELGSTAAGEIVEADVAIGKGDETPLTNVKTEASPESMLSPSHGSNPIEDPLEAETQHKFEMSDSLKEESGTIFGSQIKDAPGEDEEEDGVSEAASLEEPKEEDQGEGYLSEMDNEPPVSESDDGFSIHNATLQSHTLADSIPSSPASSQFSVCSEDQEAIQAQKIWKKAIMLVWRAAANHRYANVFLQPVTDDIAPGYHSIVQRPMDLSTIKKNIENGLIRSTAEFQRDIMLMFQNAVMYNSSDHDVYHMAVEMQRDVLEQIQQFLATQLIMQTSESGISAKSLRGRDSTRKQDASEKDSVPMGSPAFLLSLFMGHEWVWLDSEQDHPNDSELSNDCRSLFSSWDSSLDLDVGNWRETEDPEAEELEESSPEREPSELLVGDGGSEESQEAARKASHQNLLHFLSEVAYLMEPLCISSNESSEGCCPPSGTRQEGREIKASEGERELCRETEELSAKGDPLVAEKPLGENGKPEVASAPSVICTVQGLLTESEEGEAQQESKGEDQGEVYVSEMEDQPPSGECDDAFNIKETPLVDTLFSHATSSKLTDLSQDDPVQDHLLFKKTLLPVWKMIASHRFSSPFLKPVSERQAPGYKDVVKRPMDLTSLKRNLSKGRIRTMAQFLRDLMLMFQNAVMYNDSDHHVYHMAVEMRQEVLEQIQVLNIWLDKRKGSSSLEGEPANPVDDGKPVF
# UniProt O14964, whole entry: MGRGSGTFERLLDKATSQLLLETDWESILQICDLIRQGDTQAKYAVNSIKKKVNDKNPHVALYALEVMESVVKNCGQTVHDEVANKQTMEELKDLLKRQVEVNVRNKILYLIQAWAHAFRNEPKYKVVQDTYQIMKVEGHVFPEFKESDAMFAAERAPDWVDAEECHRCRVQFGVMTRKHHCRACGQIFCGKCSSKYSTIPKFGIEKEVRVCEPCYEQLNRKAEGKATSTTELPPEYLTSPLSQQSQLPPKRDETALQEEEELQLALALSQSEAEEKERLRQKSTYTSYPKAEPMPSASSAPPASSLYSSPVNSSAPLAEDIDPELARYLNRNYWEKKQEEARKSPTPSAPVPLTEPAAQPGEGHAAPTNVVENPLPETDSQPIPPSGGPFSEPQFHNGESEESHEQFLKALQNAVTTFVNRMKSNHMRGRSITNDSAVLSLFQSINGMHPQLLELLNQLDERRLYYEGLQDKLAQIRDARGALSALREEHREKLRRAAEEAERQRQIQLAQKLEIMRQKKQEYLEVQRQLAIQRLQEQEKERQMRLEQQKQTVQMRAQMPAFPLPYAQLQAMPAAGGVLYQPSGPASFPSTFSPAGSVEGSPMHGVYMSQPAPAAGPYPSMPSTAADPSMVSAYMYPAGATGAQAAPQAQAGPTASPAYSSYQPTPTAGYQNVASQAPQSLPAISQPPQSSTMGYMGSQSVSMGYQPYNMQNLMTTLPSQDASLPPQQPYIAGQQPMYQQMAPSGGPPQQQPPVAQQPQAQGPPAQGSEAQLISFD
# ± gives the standard deviation of the averaged measurements. This is a selection; strong and weak results do not stand in their true shares. Most values lie at the level of the controls, where differences are scatter.
# Compound: Nc1ncnc2c1ncn2[C@@H]1O[C@H](COP(=O)(O)OP(=O)(O)NP(=O)(O)O)[C@@H](O)[C@H]1O [adenylyl imidodiphosphate]
# Test: NP40-soluble protein abundance relative to vehicle (solubility fold change) (ratio); higher = more soluble protein in presence of AMP-PNP
# In short: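 Each value is a fold change relative to the detergent-processed vehicle, calculated per replicate from vsn-normalised intensities. Jurkat crude lysate received eight concentrations (0.1 to 10 mM) for 10 min at room temperature and 3 min at 37 °C, then was solubilised in 0.8% NP40 with benzonase (60 min, 4 °C). The ultracentrifuged supernatant was TMT-labelled and run by LC-MS/MS in three independent experiments.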
Target,NP40-soluble protein abundance (concentration: 0.1mM),NP40-soluble protein abundance (concentration: 0.5mM)
G5E994 and related entries (UniProt Q5VW38),1.01 ± 0.021,1.004 ± 0.0084
J3QT09 and related entries (UniProt Q9BQF6),0.983 ± 0.05,0.9976 ± 0.0032
H0Y659 and related entries (UniProt Q7Z6Z7),1.01 ± 0.011,1 ± 0.015
J3QS41 and related entries (UniProt P42694),0.99 ± 0.049,0.908 ± 0.036
I3L1A3 and related entries (UniProt O76021),0.9969 ± 0.0073,1.07 ± 0.047
H7BYY1 and related entries (UniProt P09493),1.03 ± 0.064,1.17 ± 0.15
J3KR58 and related entries (UniProt Q99611),1.04 ± 0.046,1.01 ± 0.07
H3BSW6 and related entries (UniProt Q2VPK5),0.998 ± 0.0094,0.98 ± 0.033
H3BRB6 and related entries (UniProt Q8ND25),1.02 ± 0.036,0.988 ± 0.025
G5EA36 and related entries (UniProt P30260),0.988 ± 0.056,0.971 ± 0.041
J3KNI1 and related entries (UniProt Q9H9E3),1 ± 0.026,0.985 ± 0.011
J3KNV1 and related entries (UniProt O60281),1.03 ± 0.02,0.991 ± 0.032
G5E9C0 and related entries (UniProt Q9HB58),0.9794 ± 0.0089,1.02 ± 0.026
H3BVG0 and related entries (UniProt Q8N1F7),0.9952 ± 0.0057,0.99 ± 0.019
J3KMZ9 and related entries (UniProt P01130),0.962 ± 0.036,0.966 ± 0.019
H0YKS8 and related entries (UniProt Q08431),1.07 ± 0.022,1 ± 0.015
G8JLH9 and related entries (UniProt P40763),1.006 ± 0.0092,1 ± 0.029
H3BMM5 and related entries (UniProt Q96AX1+H3BMM5),1.06 ± 0.042,0.992 ± 0.049
H3BLZ8 (UniProt Q92841),1.02 ± 0.035,1.01 ± 0.067
J3KPV1 and related entries (UniProt Q9BUK0),0.9972 ± 0.0042,0.9968 ± 0.0083
H3BP20 and related entries (UniProt P06865),1.01 ± 0.064,0.999 ± 0.088
H0YJF3 and related entries (UniProt Q13686),0.9856 ± 0.0083,1.012 ± 0.0084
G3V5N8 and related entries (UniProt Q9HBF4),0.973 ± 0.034,0.963 ± 0.031
J3KR97 and related entries (UniProt Q9BTW9),1.02 ± 0.049,1.02 ± 0.085

Target,NP40-soluble protein abundance (concentration: 0.1mM),NP40-soluble protein abundance (concentration: 0.5mM)
H0YN99 and related entries (UniProt Q9H792),1.01 ± 0.012,1.02 ± 0.024
H3BNW0 and related entries (UniProt Q9NXG2),0.973 ± 0.027,1.02 ± 0.067
H6UMI1 and related entries (UniProt O95166),1 ± 0.045,1.043 ± 0.0052
H7C5I3 and related entries (UniProt P35236),0.976 ± 0.017,0.987 ± 0.043
G3XAH6 and related entries (UniProt P51003),0.98 ± 0.036,0.984 ± 0.021
H3BRN4 and related entries (UniProt P80404),1 ± 0.012,0.968 ± 0.015
G3XAG1 and related entries (UniProt Q96ME7),1 ± 0.028,1.07 ± 0.057
J3KPS0 and related entries (UniProt Q9NXW2),1 ± 0.021,0.991 ± 0.015
J3KQS5 and related entries (UniProt Q96JA3),0.987 ± 0.015,0.976 ± 0.02
H0YGR4 and related entries (UniProt Q9Y3B8),0.963 ± 0.013,1.03 ± 0.05
J3KQ40 and related entries (UniProt O95759),1.01 ± 0.014,1 ± 0.021
H0Y398 and related entries (UniProt Q9H8U3),0.974 ± 0.031,1.01 ± 0.055
H3BLU2 and related entries (UniProt Q13449),0.9529 ± 0.0077,0.997 ± 0.033
J3KN32 and related entries (UniProt Q9UKL0),1.02 ± 0.06,1.06 ± 0.069
J3KNG8 and related entries (UniProt Q8TF40),1.01 ± 0.029,0.998 ± 0.018
H0YLM8 and related entries (UniProt Q8TDJ6),0.97 ± 0.043,0.947 ± 0.05
H0YLE6 and related entries (UniProt Q9NWH9),0.975 ± 0.047,1.01 ± 0.035
J3KTE4 and related entries (UniProt P84098),1.02 ± 0.045,1.01 ± 0.023
J3QR77 and related entries (UniProt Q15762),0.9857 ± 0.0085,1.01 ± 0.049
H0YKX3 and related entries (UniProt Q15004),0.977 ± 0.01,0.973 ± 0.016
H3BPE7 and related entries (UniProt P35637),0.983 ± 0.033,1.05 ± 0.07
J3KQL8 and related entries (UniProt Q9BQE5),0.995 ± 0.023,0.956 ± 0.029
J9JID7 and related entries (UniProt Q03252),0.98 ± 0.029,1.01 ± 0.08
H7C5A7 and related entries (UniProt O14734),1.01 ± 0.022,0.983 ± 0.01

# Four neighbouring records from above, for reference:
Target,NP40-soluble protein abundance (concentration: 0.1mM),NP40-soluble protein abundance (concentration: 0.5mM)
J3QS41 and related entries (UniProt P42694),0.99 ± 0.049,0.908 ± 0.036
I3L1A3 and related entries (UniProt O76021),0.9969 ± 0.0073,1.07 ± 0.047
H7BYY1 and related entries (UniProt P09493),1.03 ± 0.064,1.17 ± 0.15
J3KR58 and related entries (UniProt Q99611),1.04 ± 0.046,1.01 ± 0.07

# Later entries

Target,NP40-soluble protein abundance (concentration: 0.1mM),NP40-soluble protein abundance (concentration: 0.5mM)
H7BXF4 and related entries (UniProt Q9NXE4),1.03 ± 0.041,0.975 ± 0.11
H3BSL4 and related entries (UniProt Q66K89),0.9901 ± 0.0063,0.98 ± 0.055
H3BRL0 and related entries (UniProt Q9BXC9),1.001 ± 0.0068,0.978 ± 0.05
H3BPJ9 and related entries (UniProt O96000),1.01 ± 0.093,1.03 ± 0.15
J3KNN7 and related entries (UniProt Q7Z569),1.01 ± 0.021,0.979 ± 0.014
H0YNU5 and related entries (UniProt P54132),1.016 ± 0.0062,1.01 ± 0.02
J3KTA1 and related entries (UniProt Q96IG2),1.03 ± 0.038,0.996 ± 0.046
H3BNF9 and related entries (UniProt Q9Y2V0),1.01 ± 0.028,0.9746 ± 0.0062
H3BRQ0 and related entries (UniProt Q96CD2),0.971 ± 0.04,1 ± 0.037
I3L4I4 and related entries (UniProt O75674),1.01 ± 0.03,1.01 ± 0.04
J3KTD6 and related entries (UniProt Q96GD4),0.994 ± 0.018,1 ± 0.016
H7BYU6 and related entries (UniProt Q96K83),0.987 ± 0.042,0.9846 ± 0.0061
H3BQM0 and related entries (UniProt Q8NDF8),0.979 ± 0.025,0.97 ± 0.013
I3L4X7 and related entries (UniProt Q13227),0.992 ± 0.054,1.05 ± 0.14
H3BMM9 and related entries (UniProt Q15287),1.07 ± 0.06,1.03 ± 0.06
J3QT87 and related entries (UniProt Q96SW2),0.962 ± 0.027,0.976 ± 0.052
H7C3T3 (UniProt Q9UPV9),0.956 ± 0.043,0.925 ± 0.045
H3BSD9 and related entries (UniProt Q6PIF6),1.077 ± 0.0075,1 ± 0.075
H0YNG3 and related entries (UniProt P67812),1.01 ± 0.041,1.04 ± 0.043
I3L0U5 and related entries (UniProt Q6PK04),0.9958 ± 0.0071,1.01 ± 0.038
G8JLQ3 and related entries (UniProt P78537),0.9997 ± 0.0085,1.01 ± 0.015
H7C127 and related entries (UniProt Q9H0E9),1.01 ± 0.026,1.03 ± 0.06
H3BP28 and related entries (UniProt Q99807),0.991 ± 0.043,0.992 ± 0.059
G3XAJ6 and related entries (UniProt Q14699),0.976 ± 0.029,0.959 ± 0.016

Target,NP40-soluble protein abundance (concentration: 0.1mM),NP40-soluble protein abundance (concentration: 0.5mM)
G3V5T9 and related entries (UniProt P24941),1.01 ± 0.0079,0.989 ± 0.037
G3V532 and related entries (UniProt O75843),0.988 ± 0.021,0.974 ± 0.063
UniProt I3L0E3,1.03 ± 0.042,1.01 ± 0.075
J3KN59 and related entries (UniProt Q12982),1.01 ± 0.062,1.08 ± 0.075
H7BXD5 and related entries (UniProt P28676),1.04 ± 0.05,1.025 ± 0.0003
J3KNF4 (UniProt O14618),1 ± 0.012,0.991 ± 0.049
H3BNT4 and related entries (UniProt Q99547),0.982 ± 0.01,0.983 ± 0.021
J3QQJ0 and related entries (UniProt Q9UHR5),0.958 ± 0.013,0.978 ± 0.062
G3V4K3 and related entries (UniProt Q9H9C1),0.993 ± 0.006,0.961 ± 0.038
H0YLF3 and related entries (UniProt P61769),0.923 ± 0.2,0.935 ± 0.18
J3QTA6 and related entries (UniProt Q9BRQ6),1.01 ± 0.03,1 ± 0.06
I3L0N3 and related entries (UniProt P46459),1.01 ± 0.025,0.991 ± 0.04
H0YHA7 and related entries (UniProt Q07020),1.12 ± 0.0087,1.04 ± 0.074
H7C1U8 and related entries (UniProt Q9BUR5),1.06 ± 0.025,1 ± 0.037
H3BLT9 and related entries (UniProt Q7RTR2),0.952 ± 0.034,0.977 ± 0.032
J3KTL2 and related entries (UniProt Q07955),0.995 ± 0.04,1.07 ± 0.12
I3L165 and related entries (UniProt O14964),0.9849 ± 0.0048,0.982 ± 0.021
H0Y8X4 and related entries (UniProt O43598),1.03 ± 0.012,1.021 ± 0.005
G3XA86 and related entries (UniProt Q9Y2Z9),0.994 ± 0.018,1.01 ± 0.03
G5E9G0 and related entries (UniProt P39023),1.01 ± 0.046,0.987 ± 0.037
J3QLB2 and related entries (UniProt Q8N1S5),0.991 ± 0.024,0.932 ± 0.044
H0Y4B0 and related entries (UniProt O43414),1.015 ± 0.0086,1.01 ± 0.066
J3QQJ5 and related entries (UniProt Q9Y2L5),0.991 ± 0.043,0.95 ± 0.063
